PubChem BioAssay AID720504 (National Center for Advancing Translational Sciences (NCATS), 2013)
Out of some 360,000 compounds screened, about 10,000 (2.8%) were called active. The inconclusive results got no clear call from the source; some entries with a clear call stand among them for comparison. Calls follow the shape of the dose curve; as a rule, active = well fitted inhibition curve with a large enough effect; inconclusive = small, poorly fitted or top-dose-only effect; inactive = flat fitted curve, though single readings scatter. Potencies of inconclusive entries are doubtful fits and often do not repeat.

Chains of the proteins cited; added tags and fusions are not shown.
UniProt P53350, whole entry, looked up: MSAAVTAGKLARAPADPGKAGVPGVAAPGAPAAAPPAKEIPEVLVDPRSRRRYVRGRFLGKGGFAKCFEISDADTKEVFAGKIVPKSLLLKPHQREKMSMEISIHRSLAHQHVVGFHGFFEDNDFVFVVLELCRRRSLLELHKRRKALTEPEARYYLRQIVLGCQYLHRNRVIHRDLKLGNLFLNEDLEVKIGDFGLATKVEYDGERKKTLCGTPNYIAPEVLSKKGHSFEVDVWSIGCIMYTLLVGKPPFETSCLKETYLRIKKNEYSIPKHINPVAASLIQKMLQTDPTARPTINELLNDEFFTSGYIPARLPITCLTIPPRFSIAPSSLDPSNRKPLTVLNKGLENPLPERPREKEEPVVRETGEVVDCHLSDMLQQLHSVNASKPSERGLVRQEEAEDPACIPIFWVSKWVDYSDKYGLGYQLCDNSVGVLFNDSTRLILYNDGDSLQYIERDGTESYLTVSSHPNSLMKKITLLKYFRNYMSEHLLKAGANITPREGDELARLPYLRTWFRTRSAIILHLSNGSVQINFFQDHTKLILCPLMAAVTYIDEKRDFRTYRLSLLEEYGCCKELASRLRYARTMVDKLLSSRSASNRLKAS

The compounds below were run against Serine/threonine-protein kinase PLK1 (Homo sapiens) (UniProt P53350) (assay: qHTS for Inhibitors of PLK1-PDB (polo-like kinase 1 - polo-box domain): Primary Screen). Conditions: Plk1 PBD binding of FITC phosphopeptide, fluorescence polarization.
% is scaled to controls: 0 for no effect and ±100 for the full control effect; potency is read from the fitted curve at half-maximal effect.
Also: nearly all actives have a fitted effect of over 65% in size.
For max response, negative = inhibition in this document: series mostly up to about 57 µM.

SMILES	Potency	max response, negative = inhibition
CCOC(=O)N1CCC(NC(=O)CCc2c(C)nc3c(c(C)nn3-c3ccccc3)c2C)CC1	inconclusive: 37.7 µM [inhibitor, partial curve]	
COc1ccc(OC)c(NC(=O)c2ccc(OC3CSC3)cc2)c1	inconclusive: 23.8 µM [inhibitor, partial curve]	
Cc1ccc(NCCC(=O)c2cccs2)cc1C		inconclusive: -30.6% [inhibitor]
O=C1CCC(C(=O)Nc2cccc(S(=O)(=O)Nc3ccccc3F)c2)=NN1	active: 2.38 µM	
COc1ccc(C(C)=NNc2ccc([N+](=O)[O-])cc2S(=O)(=O)Nc2ccccc2C(=O)O)c(OC)c1	active: 21.2 µM	
Cc1cccc(C)c1-n1cccc1/C=C1\SC(=S)N(c2cccc(C(=O)O)c2)C1=O	inconclusive: 21.2 µM [inhibitor, single point]	
Cc1cnc(C(=O)Nc2ccc(C)c(S(=O)(=O)N(C)C)c2)cn1	active: 23.8 µM	
O=C(Cn1c2ccccc2c(=O)c2ccccc21)Nc1cccc(F)c1	active: 10.6 µM	
Cc1ccc(-c2ccc(/C=N/O)o2)cc1[N+](=O)[O-]		inactive: 3.04%
CC1=C(C(=O)O)N2C(=O)C(NC(=O)c3ccccc3Cl)C2SC1 (configuration not stated)	inconclusive: 29.9 µM [inhibitor, single point]	
O=c1cc(CO)oc(C(Nc2ccccn2)c2ccccc2F)c1O (configuration not stated)	inconclusive: 29.9 µM [inhibitor, partial curve]	
O=C(c1nc2ccc(Cl)cn2c1CN1CCC[C@H]1CO)N1CCc2ccccc2C1		inconclusive: -30.4% [inhibitor]
Cc1ccc(C(=O)N2CCNC(=O)C2CC(=O)Nc2ccc(F)cc2)cc1C (configuration not stated)	inconclusive: 29.9 µM [inhibitor, single point]	
COc1ccc(OC)c(C2=NS(=O)(=O)N(C)C(C(=O)Nc3cccc(C(C)=O)c3)=C2)c1	active: 18.9 µM	
c1csc(CSc2nc3ccccc3s2)c1	inconclusive: 26.7 µM [inhibitor, partial curve]	
CCC1(c2ccccc2)NC(=O)N(CC(=O)NC2(C#N)CCCCC2)C1=O (configuration not stated)		inactive: -7.57%
Cc1cc(C)cc(C(=O)NCC(=O)OCC(=O)N2c3ccccc3NC(=O)C2(C)C)c1		inactive: 2.41%
CCOC(=O)C(C)Sc1nc2c(c(=O)[nH]c(=O)n2C)n1CCc1ccccc1 (configuration not stated)	inconclusive: 23.8 µM [inhibitor, partial curve]	
CC1CCN(C(=S)c2cccc(O)c2)CC1	active: 18.9 µM	
CN1CCN(C2=Nc3c(Cl)cc(Cl)c4cccc2c34)CC1	inconclusive: 16.8 µM [inhibitor, partial curve]	
COc1ccc(OCC(=O)N(C)Cc2ccccc2)cc1		inactive: -6.56%
COC(=O)c1cc(CC(=O)c2ccc(O)cc2O)c(C)o1		inactive: -1.27%
O=C(CCN1CCCCC1)c1ccc2c(c1)OCO2	inconclusive: 21.2 µM [inhibitor, partial curve]	
Cc1ccc(-c2nnc(SCC(=O)N(C)C)nc2-c2ccc(C)cc2)cc1	inconclusive: 23.8 µM [inhibitor, partial curve]	

SMILES	Potency	max response, negative = inhibition
NC(=S)NNc1cccc(Cl)c1	inconclusive: 29.9 µM [inhibitor, single point]	
CC(=O)Nc1c(N)c2ccccc2oc1=O	inconclusive: 18.9 µM [inhibitor, single point]	
C=Cc1ccc(CN2CCCN(Cc3ccc(Cl)cc3)S2(=O)=O)cc1	active: 15 µM	
Oc1cccc(/C=N/n2c(C3CCCCC3)n[nH]c2=S)c1	inconclusive: 21.2 µM [inhibitor, partial curve]	
O=C(O)c1cccc(Cn2c(Cl)c(/C=N/NC(=O)c3ccccc3)sc2=O)c1		inactive: -5.9%
O=C(O)CCCCCCCCCCCc1ccccc1	active: 23.8 µM	
NS(=O)(=O)c1ccc(NC(=O)CCC(=O)N2CCOCC2)cc1	inconclusive: 21.2 µM [inhibitor, single point]	
O=C(Oc1ccccc1C(=S)N1CCOCC1)c1ccccc1	inconclusive: 21.2 µM [inhibitor, partial curve]	
COC(=O)c1ccc(/C=C(\C#N)C(=O)NC(C)c2ccccc2)cc1 (configuration not stated)	inconclusive: 29.9 µM [inhibitor, partial curve]	
O=C(Cc1cccs1)NC(Cc1c[nH]c2ccccc12)C(=O)O (configuration not stated)		inactive: 1.27%
Cc1cccc(C)c1NC(=O)C1CCCN1S(=O)(=O)c1ccc(-c2ccc(=O)[nH]n2)s1 (configuration not stated)	active: 11.9 µM	
CCOc1ccccc1N1CCN(C(=O)c2ccc(-c3ccc(OC(C)=O)cc3)cc2)CC1	inconclusive: 26.7 µM [inhibitor, partial curve]	
CCC(C(=O)NC1CC1)n1nc(C)c2c(C)n(-c3ccc(C)cc3)nc2c1=O (configuration not stated)		inactive: 2.71%
Cc1ccc([N+](=O)[O-])cc1N=C(c1ccc([N+](=O)[O-])cc1)N1CCOCC1		inactive: 0%
Clc1ccc(-c2cn3nc4c(nc3n2)CCCC4)cc1	inconclusive: 26.7 µM [inhibitor, partial curve]	
CSc1nc2c(c(=O)n1C)SC(C)C2 (configuration not stated)		inactive: -1.19%
CCOC(=O)c1cnc(SCC(=O)Nc2ccccc2C(=O)OC)nc1N		inactive: 0.561%
COc1ccc(OCC(=O)Nc2ccc3c(c2)nc(CCN2CCN(C)CC2)n3C)cc1	active: 23.8 µM	
CCOC(=O)C(=Cc1ccc(-n2cncn2)cc1)C(=O)OCC	inconclusive: 18.9 µM [inhibitor, partial curve]	
CCOC(=O)[C@@H]1[C@H]2COc3cc(OC)ccc3[C@H]2N2C(=O)N(c3ccc(C(F)(F)F)cc3)C(=O)[C@@]12C	inconclusive: 21.2 µM [inhibitor, partial curve]	
Cc1cccc(OC(C)C(=O)Nc2nc(-c3ccncc3)cs2)c1 (configuration not stated)	inconclusive: 15 µM [inhibitor, partial curve]	
CC(=O)c1ccc(OCC(O)CN2CCN(CC(O)COc3ccc(C(C)=O)cc3)CC2)cc1 (configuration not stated)		inactive: -7.97%
CN(C)CCSc1nc(N)c2c3c(sc2n1)COC(C)(C)C3	inconclusive: 29.9 µM [inhibitor, partial curve]	
Cc1ccc2nc(C)cc(C(=O)OCC(=O)c3ccc(Cl)c([N+](=O)[O-])c3)c2c1	inconclusive: 67 µM [inhibitor, partial curve]	

3 structures from above, ordered by count of non-hydrogen atoms, low to high.
SMILES	Potency	max response, negative = inhibition
CN1CCN(C2=Nc3c(Cl)cc(Cl)c4cccc2c34)CC1	inconclusive: 16.8 µM [inhibitor, partial curve]	
Cc1cccc(C)c1NC(=O)C1CCCN1S(=O)(=O)c1ccc(-c2ccc(=O)[nH]n2)s1 (configuration not stated)	active: 11.9 µM	
COc1ccc(C(C)=NNc2ccc([N+](=O)[O-])cc2S(=O)(=O)Nc2ccccc2C(=O)O)c(OC)c1	active: 21.2 µM	

Additional records.

SMILES	Potency	max response, negative = inhibition
CCOC(=O)C1=C(C)N=c2s/c(=C\c3cc(OC)c(OC)c(OC)c3)c(=O)n2C1/C=C/c1ccccc1 (configuration not stated)		inconclusive: -32.4% [inhibitor]
CN1C(=O)c2ccccc2Sc2ccc(C(=O)O)cc21		inactive: 3.54%
CCCCCOC(=O)c1ccc(NC(=O)c2cccc(NC(=O)c3ccccc3C(=O)O)c2)cc1	inconclusive: 21.2 µM [inhibitor, single point]	
COc1cc(C)c(NC(=S)Nc2ccc(Cl)c(Cl)c2)cc1OC	inconclusive: 21.2 µM [inhibitor, partial curve]	
COC(=O)c1sc(N)c(C(=O)OC)c1COC(=O)C12CC3CC(CC(O)(C3)C1)C2		inactive: 0.2%
Cc1cc2cc(C=C(C#N)C#N)c(Cl)nc2cc1C	inconclusive: 15 µM [inhibitor, partial curve]	
CCc1nnc(NS(=O)(=O)c2ccc(N/C=C\C(=O)c3ccc4ccccc4c3)cc2)s1	active: 23.8 µM	
Cc1ccc(-c2cc(C(=O)Nc3ccccc3C(N)=O)c3ccccc3n2)o1	inconclusive: 26.7 µM [inhibitor, partial curve]	
COc1ccc(-c2cc(C)no2)cc1S(=O)(=O)NCCCN1CCCCCC1	inconclusive: 26.7 µM [inhibitor, partial curve]	
Cc1ccc2c(c1)CCCN2C(=O)Nc1ccc2c(c1)OCO2	active: 26.7 µM	
COc1ccc2c(c1OC)C(=O)OC2Nc1nc(-c2ccc(-c3ccccc3)cc2)cs1 (configuration not stated)	active: 26.7 µM	
Cc1ccc(CN2C(=O)c3ccccc3C2c2nnnn2-c2c(C)cccc2C)cc1 (configuration not stated)		inactive: -12.5%
CC(=O)Nc1ccc(-c2sc(Nc3ccccc3)n[n+]2C)cc1		inactive: 0.59%
COc1ccc(C2C(C(=O)/C=C/c3ccco3)=C(O)C(=O)N2CCN2CCOCC2)cc1OC (configuration not stated)	inconclusive: 29.9 µM [inhibitor, single point]	
COC(=O)c1ccc2c(=O)n(CCCN3CCCC3=O)c(=S)[nH]c2c1		inactive: -6.89%
Cn1c(SCC(=O)Nc2cccnc2Cl)nc2ccccc21		inactive: -7.53%
CCCC(=O)OCC(=O)Nc1ccccc1C#N	inconclusive: 26.7 µM [inhibitor, single point]	
CCOC(=O)c1c(C)[nH]sc1=S	inconclusive: 33.6 µM [inhibitor, single point]	
O=C(O)CCCNC(=O)/C=C/c1ccco1	inconclusive: 23.8 µM [inhibitor, partial curve, poor fit]	
Cc1cc(N2O[C@]34C=C[C@]25C[C@@H](O)CC[C@]5(C)C3CC[C@]2(C)[C@@H]([C@H](C)/C=C/[C@H](C)C(C)C)CC[C@H]24)no1 (some centres not stated)	active: 23.8 µM	
O=C(Nc1ccc(NC(=O)c2ccccc2Br)cc1)c1ccccc1		inactive: -4.51%
CCn1c2ccc(C)cc2c2n[nH]c(=S)nc21	inconclusive: 11.9 µM [inhibitor, partial curve]	
O=C(NC(=S)Nc1ccc(N2CCOCC2)c(Cl)c1)C(c1ccccc1)c1ccccc1	active: 26.7 µM	
O=C(Oc1ccc(C(=S)N2CCCCC2)cc1)c1ccccc1	inconclusive: 18.9 µM [inhibitor, partial curve]	
